Hit rate of the full screen: of about 53,000 sequences, about 3,700 (7%) were called active.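 Rule for the calls: active = gene knockdowns whose robust z-score for IL-1 alpha signal is at least 2 or at most -2, so actives lie on both sides; inactive = the rest.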 The list shows a part of the results.
Assay: Components of the Cytosolic LPS Sensing Pathway: Gene Identification via Genome-wide siRNA Screen;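 note: robust z of the log signal after scaling to non-targeting control siRNA wells of the plate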
Settings: RAW264.7 macrophages, IL-1a HTRF, actives lie on both sides, screened at 100 nM (by protocol), cells primed 5 h with Pam3CSK4 first
In short: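 Cells (RAW264.7, 1×10^4 per well) were transfected with siRNA at 100 nM and cultured 48h at 37 degrees C. Pam3CSK4 was added for 5 hours; LipidA transfection followed for 24 hour. IL-1a was then measured by HTRF.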
For GAUACAGAAUGUCUCAUCCTT against Olfr1128, the z-score was inactive: 0.307.
For CCAGAAAUAAAAGACAUCGTT against Cox18, the z-score was inactive: 1.35.
With CCUUACCCUGUUAUACAAGTT against Hirip3 the z-score was active: 2.69.
With GGCCUGUGAGUGUGACAAATT against Pla2g2c the z-score was inactive: -1.32.
With GGACGAUUCCCAGUUUCUGTT against Phf1 the z-score was inactive: 1.25.
In the case of GCACAUAUCACGCUACCUGTT against Lrrc75b, the z-score is reported as inactive: -0.0605.
In the case of GGUUCACUCAACUCAACAATT against Spaca7, the z-score is reported as inactive: -1.01.
With GCCCAUUGUAUGACUGCCGTT against Gfra2 the z-score was active: 3.21.
For “CCAGAAUUGAACUUCAAGUTT against 2610008E11Rik”, the z-score was inactive: -0.00302.
In the case of GGUCUUACUCCAGUCUGCCTT against Rufy1, the z-score is reported as inactive: 0.536.
In the case of CCUAGAACUUAAAUGGACATT against Ube2d2b, the z-score is reported as inactive: 0.135.
With GGAGCUCAAAGACAAAGAATT against Ccdc178 the z-score was inactive: -1.85.
In the case of CGAUUUAUUGGAGGCGCACTT against Glrx2, the z-score is reported as inactive: -0.632.
In the case of CGAGGAGAAUUUGUAAUGATT against Etfrf1, the z-score is reported as inactive: -0.554.
With GGACUCUCAAUGAUGAAUATT against Map7d3 the z-score was inactive: 1.85.
In the case of GGUUGUAUCAGUGAAGACATT against Cyren, the z-score is reported as inactive: 0.465.
In the case of GGUGACCAAAAUGACUUGUTT against Slc39a3, the z-score is reported as inactive: 0.0258.
In the case of GCGUGGACAAACUCUAUGATT against Gramd1b, the z-score is reported as inactive: -1.16.
For CGGGAGGUGAAUAUCGAUUTT against Rgs8, the z-score was inactive: -0.282.
In the case of GGGAAUUUCGGCUGUUUUATT against Cts8, the z-score is reported as inactive: 1.85.
With CCAAUUGGGCACAUAGUCGTT against Ovgp1 the z-score was inactive: 0.19.
In the case of GGUGAUGGAGUACUUAUUGTT against Acadvl, the z-score is reported as inactive: -0.258.
For GGCAAAGAUCAAGACUGUGTT against Arid4a, the z-score was inactive: -1.74.
With CGACUAAUAUGUCCCAGCUTT against Bend3 the z-score was inactive: -1.21.
With CGAUGAAAUCAUCACUAUCTT against Cyfip1 the z-score was inactive: 0.331.
With GGGUCCUCUUUAAAAGGCUTT against Smc6 the z-score was inactive: -1.1.
In the case of GGCUAAUGGUGCGUACAGATT against Cyp4a10, the z-score is reported as inactive: 0.418.
In the case of GGUGCAUAGCAUACCCUAGTT against Hlf, the z-score is reported as inactive: -0.0656.
For GGAACUAUUACCAUUCUGUTT against Dkk3, the z-score was inactive: -0.045.
In the case of GGGCACAUUCUCAAGACGUTT against Stx1b, the z-score is reported as inactive: 0.22.
In the case of GGUAUUUGCCAACCAAAACTT against Trerf1, the z-score is reported as inactive: -0.415.
For GCAUCACAGGCGAGUUUGUTT against Olfr11, the z-score was inactive: 0.431.
For GGAAAUUUUGACCAAGACCTT against Apoc1, the z-score was inactive: -0.337.
For GGUGGUUUUCAUGUUUCCCTT against Olfr574, the z-score was inactive: -1.48.
In the case of GGGAAGACUAUCUCGUGACTT against Aatk, the z-score is reported as inactive: -1.06.
With GGUUCUCCACAUGGUGAAUTT against Aptx the z-score was inactive: 0.757.
For CGCUCUCUGGAUUUAUCCATT against Agt, the z-score was inactive: -0.359.
For GAAAUCCAAGAGCAAUGAGTT against H2-K1, the z-score was inactive: 0.668.
With CGCAGCUGAAUAUGUGAAGTT against H2-M10.5 the z-score was inactive: 0.386.
In the case of GGAAAACCAACAAAGCAAATT against Pde10a, the z-score is reported as inactive: -0.692.
With CGUGUUACAUCAUCAGUUCTT against Gjd2 the z-score was inactive: 1.6.
With GGACCAAGUACCAGACUGATT against Krt34 the z-score was inactive: -0.167.
For GGUGACGGUGUACGAGUUATT against Crybb3, the z-score was inactive: -0.0714.
For “GGAUAAUUCAAAGACUGGATT against A630091E08Rik”, the z-score was inactive: 0.411.
In the case of GGAGAAAGGAUUAUAGAUGTT against Klk7, the z-score is reported as inactive: 0.202.
In the case of GGAGAACAGCACACUGAACTT against Trappc5, the z-score is reported as inactive: 0.94.
In the case of GGACAUAAGACCAUCUCCCTT against Olfr49, the z-score is reported as inactive: 1.81.
In the case of GCUGAGGCUGUGGAAACCATT against Nradd, the z-score is reported as inactive: 0.52.
With GGAUACCAAGCAUCGGAAGTT against Tfap2e the z-score was inactive: -0.0352.
For GGCACAGUUCUGGAAGAUGTT against Qtrt1, the z-score was inactive: -1.02.
With GGAAAUAUGGACAAGAACATT against Tulp4 the z-score was inactive: 1.54.
For GGAGGUCCAGGAUUUUAUATT against Styk1, the z-score was inactive: 1.12.
With CCAUUGUUAGCCACAUACGTT against Acp5 the z-score was inactive: 1.74.
In the case of GGUCAUCAAGCAGUGCUAUTT against Ncstn, the z-score is reported as active: 4.32.
In the case of GCCAAUCGUAACUUGCUAATT against Arhgap19, the z-score is reported as inactive: 0.865.
For GGAAUUCAUGAAGAAGUCATT against Pdlim7, the z-score was inactive: -1.16.
For GCCUGAGUAACUUUGAACATT against Rangrf, the z-score was inactive: 0.138.
For CCUAGUAACUAUCUACCUCTT against Sval3, the z-score was inactive: 0.232.
For GCGCAACUAAAACAGAUUGTT against Eif2ak1, the z-score was active: 2.2.
In the case of GGUGAAAAACUGCUAAAUATT against Akr1cl, the z-score is reported as inactive: 1.62.
In the case of GGAACUGAAAGACCAGUAGTT against Rpl37a, the z-score is reported as inactive: 0.44.
For GGAGGAAACUAUUAUGACATT against Crybg3, the z-score was inactive: -0.569.
In the case of GGGACUUAAGGAGAGAAAUTT against Nlrp4a, the z-score is reported as inactive: 1.57.
In the case of GCACAACAUCCCAGAUAAATT against Ankrd55, the z-score is reported as inactive: 0.338.
With CCUCCUCCAACCAUCAGUUTT against Olfr695 the z-score was inactive: 0.807.
In the case of GGGUAGCUUUUUUUAUAACTT against Tnfrsf11b, the z-score is reported as inactive: 1.37.
In the case of CCAAUCCGUGUAUUGGUUATT against Itgb5, the z-score is reported as inactive: -0.243.
With CCUGGAACAAUUUAACCAATT against Mcm6 the z-score was inactive: 0.112.
With GGCAGUUAUUCAGAAUUGATT against Nfu1 the z-score was active: -2.2.
With GGACCUUGGAGAAAUUAGGTT against Nupr1 the z-score was inactive: -1.08.
With GGGCUUAACUAAAAGUAGUTT against Henmt1 the z-score was inactive: 0.227.
In the case of GGAGAGCUGGUUCAUCACUTT against Trp53inp1, the z-score is reported as inactive: -0.731.
In the case of GGUCACCCUCAAGUACCCUTT against Thop1, the z-score is reported as inactive: -0.188.
With GGACAGAAUUUUACCCUAATT against Tenm3 the z-score was inactive: -1.89.
With CGAGCUAAACUCAGGCUCUTT against Mxd4 the z-score was inactive: -0.896.
In the case of GGUCCUCGGUUACAGAAACTT against Cnr2, the z-score is reported as inactive: -0.263.
In the case of GGAUAUUCAAAGUUACCAATT against Cacna1b, the z-score is reported as inactive: 0.513.
In the case of GGCAAGAAGGACAAUGAGUTT against Mb21d2, the z-score is reported as active: -2.82.
With GGAUGUUCAACUAAAAGUATT against Vps50 the z-score was inactive: 1.16.
With GGUUAUGAAGAUUUCGUUGTT against Myl1 the z-score was inactive: 0.569.
With GGCCUAAAUUAUAUUAGGATT against Nyx the z-score was inactive: 0.216.
For GGACUUUGAAGAACUAAGUTT against Tfrc, the z-score was inactive: 1.01.
In the case of AUUACAUGAUGAGCUUGGUTT against Olfr804, the z-score is reported as inactive: 0.513.
For GGUGUGCGUCACCAAAAAATT against Gipc1, the z-score was inactive: -0.652.
With CCAUGGUCACCUAUGUCCUTT against Tas2r129 the z-score was inactive: -0.652.
In the case of GGUGCAAUCAGGUAUUUCATT against Olfr917, the z-score is reported as active: -2.26.
For GGCAAAGUGGAUAAGCAAUTT against Dpp6, the z-score was inactive: -0.372.
With CCAAUUACGCCUUUGUACCTT against Tnk2 the z-score was inactive: -1.97.
For GACCCUCGGGCGGAUAAAATT against Nkx2-5, the z-score was inactive: -1.59.
With GGACAACAUAUUCUGAUAATT against Stmnd1 the z-score was inactive: 1.68.
For GCUGAACAUCUGGGAUGUATT against Arl2, the z-score was inactive: 1.02.
For GGAACUCUGUAGUUUUCAATT against Dnajc16, the z-score was inactive: 1.96.
With “GGUAGCUACUCAUAUAUAGTT against E330037G11Rik” the z-score was inactive: -0.252.
With GGAAAAUUCAUCCUUAGUATT against Wdr61 the z-score was inactive: -0.086.
For CCAUACAUAAAAAGCCGCCTT against Il1rl1, the z-score was inactive: 1.29.
In the case of GGAACUGAAGGCUCUCAUCTT against Calm5, the z-score is reported as inactive: -0.182.
In the case of GGGCAACCCACAAUAAAAATT against B9d1, the z-score is reported as inactive: -1.66.
With GGUUAGUCUCUCCAGAAAGTT against Polg2 the z-score was inactive: -0.904.
In the case of GGACUACCUCACACUCUUCTT against Sigmar1, the z-score is reported as inactive: 0.814.
For GCAUAUCUGUUCAUGAUGATT against Cmya5, the z-score was inactive: 0.899.
With GCAGCUCAGUUAUUGUCAGTT against Cyp20a1 the z-score was inactive: -0.85.
In the case of GGAUCAAGACAAAAAACUUTT against Arhgap17, the z-score is reported as inactive: -0.17.
For GGUUGCAUUGUAGGGUUGGTT against Olfr129, the z-score was inactive: 0.221.
For “GGACAAUGGCCAUGUUUUATT against 2310030G06Rik”, the z-score was inactive: -0.588.
For GCAAACCAGGGAAAAAGUGTT against Zc3h6, the z-score was inactive: 1.38.
For GGGUUUCUGUGAGAGACAATT against Ube2f, the z-score was inactive: 1.01.
For GGAGCACUGAUUUGAUAGATT against Lynx1, the z-score was inactive: -0.123.
